Results from PubChem BioAssay AID206 (DTP/NCI, 2004).
The list is a part of this screen's results and no random one: it is rich in T/C values a quarter to a half above the control, in often repeated tests (any T/C) and in doses without a T/C. Further doses and runs are listed elsewhere. T/C gives the treated animals as a percentage of the vehicle group. Schedule codes are those of the source, taken here to give the interval after Q, in days (D) or hours (H), and the number of doses after X. Some T/C values carry the count of animals alive at the toxicity check (mostly the fifth day); where none is given, no animal had died by that day. Some doses were run more than once; the values are given in rising order. Additions like (4×) say how often a value occurs here. Some entries give survivors of the animals treated and no T/C: the source holds a T/C of zero for them, seemingly a mark for toxic or unscored doses. Counts of survivors are from the toxicity check (mostly the fifth day) where no day follows; animals may have died later.

Tested on: nude mice, HT29 intrarenal xenograft, tumor weight T/C
Test: NCI In Vivo Anticancer Drug Screen. Data for tumor model HT29;CX-1 Human Adenocarcinoma (MER+) (intrarenal inoculation) in NU/NU Swiss (nude) mice
Details: T/C endpoint: mean tumor weight change, higher T/C = larger tumour
Summary of the method: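 T/C = treated-group value ÷ vehicle-group value, using tumor size or survival.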

[1] = dose: 400.0 mg/kg/injection, schedule: Q01DX010 (sc), vehicle: saline with Tween-80

**Q.** For Cc1c(N)nc([C@H](CC(N)=O)NC[C@H](N)C(N)=O)nc1C(=O)N[C@H](C(=O)N[C@H](C)[C@@H](O)[C@H](C)C(=O)N[C@H](C(=O)NCCc1nc(-c2nc(C(=O)NCCC[S+](C)C)cs2)cs1)[C@@H](C)O)C(OC1OC(CO)C(O)C(O)C1OC1OC(CO)C(O)C(OC(N)=O)C1O)c1cnc[nH]1 (some centres undefined), which T/C (dose: 12.5 mg/kg/injection, schedule: Q04DX004 (sc), vehicle: saline, evaluated on day 15) is on record?
**A.** Its T/C is 126 % of control.

**Q.** And the survivor count (dose: 64.0 mg/kg/injection, schedule: Q04DX004 (sc), vehicle: saline)?
**A.** The survivor count was 0 of 3 on day 15.

**Q.** And the survivor count (dose: 128.0 mg/kg/injection, schedule: Q01DX010 (sc), vehicle: saline)?
**A.** Its survivor count is 0 of 3 on day 11.

**Q.** For NCCc1ccc(O)c(O)c1, which survivor count (dose: 400.0 mg/kg/injection, schedule: Q01DX010 (sc), vehicle: saline) is on record?
**A.** Its survivor count is 1 of 3 on day 11.

**Q.** And the survivor count (dose: 800.0 mg/kg/injection, schedule: Q01DX010 (sc), vehicle: saline)?
**A.** Its survivor count is 1 of 3 on day 11.

**Q.** What about the survivor count (dose: 1600.0 mg/kg/injection, schedule: Q01DX010 (sc), vehicle: saline) of the same compound?
**A.** The survivor count was 1 of 3 on day 11.

**Q.** Which results are given for CCOC(=O)C(CC(C)C)NC(=O)C(Cc1ccc(N(CCCl)CCCl)cc1)NC(C)=O (centres undefined)?
**A.** T/C (dose: 50.0 mg/kg/injection, schedule: Q01DX010 (sc), vehicle: saline with Tween-80, evaluated on day 11): 9 [2 of 3 alive on day 11], 34, 48, 75 [4 of 6 alive on day 11], 88, 114 % of control; T/C (dose: 100.0 mg/kg/injection, schedule: Q01DX010 (sc), vehicle: saline with Tween-80, evaluated on day 11): 17, 46 [4 of 6 alive on day 11], 49 % of control (2×); survivor count (dose: 100.0 mg/kg/injection, schedule: Q01DX010 (sc), vehicle: saline with Tween-80): 1 of 3 on day 11 and 2 of 6 on day 11; T/C (dose: 200.0 mg/kg/injection, schedule: Q01DX010 (sc), vehicle: saline with Tween-80, evaluated on day 11): 13, 73, 156 % of control [5 of 6 alive on day 11]; survivor count (dose: 200.0 mg/kg/injection, schedule: Q01DX010 (sc), vehicle: saline with Tween-80): 0 of 3 on day 11; survivor count [1]: 0 of 3 on day 11

**Q.** Which survivor count (dose: 25.0 mg/kg/injection, schedule: Q01DX010 (sc), vehicle: saline with Tween-80) does the source give for C=CC(=O)N1CN(C(=O)C=C)CN(C(=O)C=C)C1 here?
**A.** Its survivor count is 1 of 3 on day 11.

**Q.** And the survivor count (dose: 50.0 mg/kg/injection, schedule: Q01DX010 (sc), vehicle: saline with Tween-80)?
**A.** The survivor count was 0 of 3 on day 11.

**Q.** Which survivor count (dose: 50.0 mg/kg/injection, schedule: Q01DX010 (sc), vehicle: saline) does the source give for C1OC1C1CO1 (centres undefined) here?
**A.** Its survivor count is 1 of 3 on day 20.

**Q.** What about the survivor count (dose: 100.0 mg/kg/injection, schedule: Q01DX010 (sc), vehicle: saline) of the same compound?
**A.** The survivor count was 0 of 3 on day 20.

**Q.** COC(=O)C12OCC34C(CC5C(C)C6=CC(=O)OC6=CC5(C)C3C(O)C1O)OC(=O)C(OC(C)=O)C24 (centres undefined) was tested. Which T/C (dose: 2.5 mg/kg/injection, schedule: Q04DX004 (sc), vehicle: saline + alcohol, evaluated on day 15) did it give?
**A.** Its T/C is 144 % of control.

**Q.** What does the source list for OCC1OC(n2cnc3c2NC=NC[C@H]3O)CC1O (some centres undefined)?
**A.** survivor count (dose: 4.0 mg/kg/injection, schedule: Q01DX010 (sc), vehicle: water): 0 of 3 on day 11; survivor count (dose: 8.0 mg/kg/injection, schedule: Q01DX010 (sc), vehicle: water): 0 of 3 on day 11

**Q.** For Cc1ccc(S(=O)(=O)N/N=C/C(Br)=C(/Br)C(=O)O)cc1, which survivor count (dose: 1200.0 mg/kg/injection, schedule: Q04DX004 (sc), vehicle: Klucel (hydroxypropylcellulose) (HPC)) is on record?
**A.** The survivor count was 0 of 6 on day 15.

**Q.** Which results are given for [N-]=[N+]=CC(=O)CCC(N)C(=O)O (centres undefined)?
**A.** survivor count (dose: 0.4 mg/kg/injection, schedule: Q01DX010 (sc), vehicle: saline): 0 of 3 on day 11; survivor count (dose: 0.8 mg/kg/injection, schedule: Q01DX010 (sc), vehicle: saline): 0 of 3 on day 11 and 1 of 3 on day 11; survivor count (dose: 1.6 mg/kg/injection, schedule: Q01DX010 (sc), vehicle: saline): 0 of 3 on day 11; survivor count (dose: 3.2 mg/kg/injection, schedule: Q01DX010 (sc), vehicle: saline): 0 of 3 on day 11; survivor count (dose: 6.4 mg/kg/injection, schedule: Q01DX010 (sc), vehicle: saline): 0 of 3 on day 11

**Q.** For BrC1c2cccc3cccc(c23)C1Br (centres undefined), which T/C (dose: 300.0 mg/kg/injection, schedule: Q04DX004 (sc), vehicle: saline with Tween-80, evaluated on day 15) is on record?
**A.** Its T/C is 137 % of control.

**Q.** And the survivor count (dose: 2400.0 mg/kg/injection, schedule: Q04DX004 (sc), vehicle: saline with Tween-80)?
**A.** Its survivor count is 2 of 6 on day 15.

**Q.** Which results are given for CNC(=O)O/N=C(\CN=[N+]=[N-])C(C)(C)C?
**A.** T/C (dose: 0.63 mg/kg/injection, schedule: Q04DX004 (sc), vehicle: saline, evaluated on day 15): 129 % of control; T/C (dose: 1.25 mg/kg/injection, schedule: Q04DX004 (sc), vehicle: saline, evaluated on day 15): 144 % of control; survivor count (dose: 2.5 mg/kg/injection, schedule: Q04DX004 (sc), vehicle: saline): 0 of 6 on day 15; survivor count (dose: 5.0 mg/kg/injection, schedule: Q04DX004 (sc), vehicle: saline): 0 of 6 on day 15

**Q.** Which survivor count (dose: 200.0 mg/kg/injection, schedule: Q04DX004 (sc), vehicle: Klucel (hydroxypropylcellulose) (HPC)) does the source give for COc1ccc(Cl)[n+]([O-])n1 here?
**A.** The survivor count was 2 of 6 on day 15.

**Q.** And the survivor count (dose: 400.0 mg/kg/injection, schedule: Q04DX004 (sc), vehicle: Klucel (hydroxypropylcellulose) (HPC))?
**A.** Its survivor count is 0 of 6 on day 15.

**Q.** How did the survivor count (dose: 120.0 mg/kg/injection, schedule: Q04DX004 (sc), vehicle: water) turn out when Cn1c(=O)[nH]c2nncnc2c1=O was run?
**A.** The survivor count was 0 of 6 on day 15.

**Q.** With CN(C)C(=O)SC1=C(c2c(Cl)cccc2Cl)C(=O)c2ccccc21 as the compound, how does the T/C (dose: 1200.0 mg/kg/injection, schedule: Q04DX004 (sc), vehicle: Klucel (hydroxypropylcellulose) (HPC), evaluated on day 15) read?
**A.** Its T/C is 148 % of control.

**Q.** What about the T/C (dose: 2400.0 mg/kg/injection, schedule: Q04DX004 (sc), vehicle: Klucel (hydroxypropylcellulose) (HPC), evaluated on day 15) of the same compound?
**A.** The T/C was 136 % of control.

**Q.** With COc1cccc2c1C(=O)c1c(O)c3c(c(O)c1C2=O)C[C@@](O)(C(C)=O)C[C@@H]3OC1CC(N(C)C)C(O)C(C)O1 (some centres undefined) as the compound, how does the survivor count (dose: 8.0 mg/kg/injection, schedule: Q01DX010 (sc), vehicle: saline) read?
**A.** The survivor count was 0 of 3 on day 20.

**Q.** What about the survivor count (dose: 16.0 mg/kg/injection, schedule: Q01DX010 (sc), vehicle: saline) of the same compound?
**A.** The survivor count was 0 of 3 on day 20.

**Q.** And the survivor count (dose: 20.0 mg/kg/injection, schedule: Q04DX004 (sc), vehicle: water)?
**A.** Its survivor count is 1 of 3 on day 15.

**Q.** For CCc1ncnc2cc(OCC3CO3)c(OC)cc12 (centres undefined), which survivor count (dose: 200.0 mg/kg/injection, schedule: Q04DX004 (sc), vehicle: saline) is on record?
**A.** Its survivor count is 0 of 6 on day 15.

**Q.** How did the survivor count [1] turn out when O=c1[nH]c(=O)n(C2CC(O)C(CO)O2)cc1I (centres undefined) was run?
**A.** The survivor count was 0 of 3 on day 11.

**Q.** And the survivor count (dose: 800.0 mg/kg/injection, schedule: Q01DX010 (sc), vehicle: saline with Tween-80)?
**A.** Its survivor count is 0 of 3 on day 11.

**Q.** And the survivor count (dose: 1600.0 mg/kg/injection, schedule: Q01DX010 (sc), vehicle: saline with Tween-80)?
**A.** The survivor count was 0 of 3 on day 11.

**Q.** Which results are given for CCc1ccc(C2=C(O)C(=O)C(c3ccccc3)=C(O)C2=O)cc1?
**A.** T/C (dose: 150.0 mg/kg/injection, schedule: Q04DX004 (sc), vehicle: Klucel (hydroxypropylcellulose) (HPC), evaluated on day 15): 138 % of control; survivor count (dose: 300.0 mg/kg/injection, schedule: Q04DX004 (sc), vehicle: Klucel (hydroxypropylcellulose) (HPC)): 1 of 6 on day 15; survivor count (dose: 600.0 mg/kg/injection, schedule: Q04DX004 (sc), vehicle: Klucel (hydroxypropylcellulose) (HPC)): 1 of 6 on day 15

**Q.** CCC1=C2C(=O)c3ccccc3C2=C(C)S(=O)(=O)O1 was tested. Which T/C (dose: 600.0 mg/kg/injection, schedule: Q04DX004 (sc), vehicle: saline with Tween-80, evaluated on day 15) did it give?
**A.** The T/C was 134 % of control.

**Q.** With COc1ccc(/C=C/C(=O)c2cc(C(=O)O)c(OC)cc2OC)cc1OC as the compound, how does the survivor count (dose: 1800.0 mg/kg/injection, schedule: Q04DX004 (sc), vehicle: suspension in saline) read?
**A.** Its survivor count is 2 of 5 on day 15.

**Q.** Which results are given for CC[N+](CC)(CC)CC?
**A.** T/C (dose: 1.5 mg/kg/injection, schedule: Q01DX010 (sc), vehicle: saline with Tween-80, evaluated on day 11): 127 % of control; survivor count (dose: 12.0 mg/kg/injection, schedule: Q01DX010 (sc), vehicle: saline with Tween-80): 0 of 3 on day 11

**Q.** For CSc1ncnc2c1ncn2C1OC(CO)C(O)C1O (centres undefined), which T/C (dose: 150.0 mg/kg/injection, schedule: Q04DX004 (sc), vehicle: saline + alcohol, evaluated on day 15) is on record?
**A.** The T/C was 4, 23, 34, 51 % of control.

**Q.** And the survivor count (dose: 200.0 mg/kg/injection, schedule: Q04DX004 (sc), vehicle: saline + alcohol)?
**A.** The survivor count was 3 of 6 on day 15.

**Q.** What about the survivor count (dose: 300.0 mg/kg/injection, schedule: Q04DX004 (sc), vehicle: saline + alcohol) of the same compound?
**A.** The survivor count was 0 of 6 on day 15, 1 of 6 on day 15, 3 of 6 on day 15.

**Q.** Cc1c(N)nc(C(CC(N)=O)NCC(N)C(N)=O)nc1C(=O)NC(C(=O)NC(C)C(O)C(C)C(=O)NC(C(=O)NCCc1nc(-c2nc(C(=O)NCCCNCCCc3ccccn3)cs2)cs1)C(C)O)C(OC1OC(CO)C(O)C(O)C1OC1OC(CO)C(O)C(OC(N)=O)C1O)c1cnc[nH]1 (centres undefined) was tested. Which survivor count (dose: 72.0 mg/kg/injection, schedule: Q04DX004 (sc), vehicle: water) did it give?
**A.** Its survivor count is 2 of 6 on day 15.
